Laboratory results: PubChem BioAssay AID504793 (Drosophila RNAi Screening Center, 2011)

- Assay: 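Knock-downs allowing continued mitosis even though DNA is damaged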 (primary screen)
- System: Drosophila S2R+ cells
- Knock-down reagent: long dsRNA against Drosophila genes, about 0.25 µg dsRNA per well
- Duration: 4 days of dsRNA, then 4 hours of drug before read-out
- Conditions: doxorubicin 0.5 µM for 4 hours to cause double-strand breaks, in cells also given a low, harmless dose of dsRNA against nbs to sensitise the assay
- Measured: 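Per-well count of mitotic cells stained for phospho-histone H3 after doxorubicin exposure, used as mitotic index; counts are raw and not normalised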
- Scale: mitotic cells: higher = more cells in mitosis, weaker G2 arrest
- Call rule: 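a call needs confirmation in secondary tests, with other dsRNAs and a check of mitotic timing without damage, not just a high primary count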
- Meaning of the calls: active = confirmed in follow-up tests; inactive = not confirmed
In all, the deposit lists about 23,000 reagents; below is a random part of those with a known target gene and a result. Over the whole deposit, 62 (0.27%) were called active. 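Calls come from follow-up tests whose scores are not deposited, so confirmed genes may have low counts here; counts are not normalised per plate.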 Raw values are not corrected between plates. A number with no mark means an inactive call. Names joined by + are all predicted targets of the reagent.

Cpr49Ab (Cuticular protein 49Ab) [DRSC05341] | mitotic cells, replicate 1 = 3
Cpr49Ab (Cuticular protein 49Ab) [DRSC25034] | mitotic cells, replicate 1 = 6
CG12035 [DRSC08238] | mitotic cells, replicate 1 = 2
CG32536 + CG32537 [DRSC20074] | mitotic cells, replicate 2 = 10
CG7715 [DRSC16301] | mitotic cells, replicate 1 = 10
repo (reversed polarity) [DRSC23108] | mitotic cells, replicate 1 = 6
repo (reversed polarity) [DRSC26970] | mitotic cells, replicate 1 = 6
CG6683 [DRSC10694] | mitotic cells, replicate 1 = 10
CG6683 [DRSC25674] | mitotic cells, replicate 1 = 8
Jon65Aii (Jonah 65Aii) [DRSC10665] | mitotic cells, replicate 1 = 4
CG42329 [DRSC00373] | mitotic cells, replicate 1 = 8
CG42329 [DRSC00682] | mitotic cells, replicate 1 = 10
Taf12L (TBP-associated factor 30kD subunit alpha-2) [DRSC00467] | mitotic cells, replicate 1 = 2
Sptz (Spastizin) [DRSC15758] | mitotic cells, replicate 1 = 8
Sptz (Spastizin) [DRSC27382] | mitotic cells, replicate 1 = 7

The list goes on, starting with the last 2 of the part before.
Sptz (Spastizin) [DRSC15758] | mitotic cells, replicate 1 = 8
Sptz (Spastizin) [DRSC27382] | mitotic cells, replicate 1 = 7
fus (fusilli) [DRSC05569] | mitotic cells, replicate 1 = 6
fus (fusilli) [DRSC07107] | mitotic cells, replicate 1 = 8
moi + Tgs1 [DRSC16371] | mitotic cells, replicate 1 = 9
CG32132 (retired record) [DRSC23128] | mitotic cells, replicate 1 = 2
CG10958 [DRSC17768] | mitotic cells, replicate 1 = 7
CG10958 [DRSC29583] | mitotic cells, replicate 1 = 5
Oatp58Da (Organic anion transporting polypeptide 58Da) [DRSC04365] | mitotic cells, replicate 1 = 11
Oatp58Da (Organic anion transporting polypeptide 58Da) [DRSC25499] | mitotic cells, replicate 1 = 1
Start1 [DRSC04384] | mitotic cells, replicate 1 = 2
Start1 [DRSC28343] | mitotic cells, replicate 1 = 9
RabX6 [DRSC08223] | mitotic cells, replicate 1 = 4
CG9757 [DRSC16557] | mitotic cells, replicate 1 = 6
CG9757 [DRSC21707] | mitotic cells, replicate 1 = 7
CG9757 [DRSC25621] | mitotic cells, replicate 1 = 9
Ret (Ret oncogene) [DRSC03409] | mitotic cells, replicate 1 = 5
Ret (Ret oncogene) [DRSC03410] | mitotic cells, replicate 1 = 5
E23 (Early gene at 23) [DRSC00593] | mitotic cells, replicate 1 = 4
E23 (Early gene at 23) [DRSC25491] | mitotic cells, replicate 1 = 2
CG5708 [DRSC02881] | mitotic cells, replicate 1 = 3
